PubChem BioAssay AID1259405 – NCATS – 2018
Assay: 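Silenced genes that increase secreted GFP made by CHO cells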 (primary screen). Cells: Chinese hamster CHO-K1 ovary cells with stable secreted eGFP expression. Reagent: single siRNA against mouse genes, 0.8 pmol siRNA per well (2 µl of 400 nM stock). Time to read-out: 3 days. Measurement: 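Percent of the per-plate non-targeting control median for intracellular GFP per well by laser scanning cytometry and for cell viability by ATP luminescence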. Scale: GFP, % of control: higher = more GFP per well, higher productivity; viability (ATP), % of control: higher = more viable cells (more ATP). Hit rule: 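Called active when intracellular GFP, relative to negative control, is at or above 120%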.
Here is one part, drawn at random, of about 50,000 reagents tested. Of all reagents, about 4,000 (8%) were called active. 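Mouse siRNA library applied to hamster cells; one well for each siRNA.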 A number with no mark means an inactive call. The numbers tell different reagents against one gene apart. Reagent sequences are not shown.

target | siRNA no. | GFP, % of control | viability (ATP), % of control
Caap1 (GeneID 67770) | 1 | 121 (active) | 94
Caap1 (GeneID 67770) | 2 | 86.8 | 101
Caap1 (GeneID 67770) | 3 | 107 | 104
Etv1 (GeneID 14009) | 1 | 91.1 | 83.8
Etv1 (GeneID 14009) | 2 | 60.9 | 57.6
Etv1 (GeneID 14009) | 3 | 105 | 111
Ptbp3 (GeneID 230257) | 1 | 62.5 | 95.9
Ptbp3 (GeneID 230257) | 2 | 77.3 | 93.7
Pheta2 (GeneID 338368) | 1 | 87 | 66.3
Pheta2 (GeneID 338368) | 2 | 98.5 | 69.6
Pheta2 (GeneID 338368) | 3 | 118 | 110

Looked up above.
Result for Caap1 (GeneID 67770) #3 in “GFP, % of control”: 107
Etv1 (GeneID 14009) #2, GFP, % of control → 60.9
Result of Etv1 (GeneID 14009) #3 in “GFP, % of control”: 105
Value of Caap1 (GeneID 67770) #1 under “viability (ATP), % of control”: 94 (active)
Ptbp3 (GeneID 230257) #1, GFP, % of control → 62.5

More results:
target | siRNA no. | GFP, % of control | viability (ATP), % of control
Nos3 (GeneID 18127) | 1 | 63.4 | 62.8
Nos3 (GeneID 18127) | 2 | 105 | 62.5
Gclm (GeneID 14630) | 1 | 73.8 | 83.4
Gclm (GeneID 14630) | 2 | 122 (active) | 131
Stimate (GeneID 69179) | 1 | 64 | 69
Stimate (GeneID 69179) | 2 | 62.3 | 73.8
Stimate (GeneID 69179) | 3 | 61.1 | 45.5
U2af1 (GeneID 108121) | 1 | 61.7 | 62.8
U2af1 (GeneID 108121) | 2 | 93.1 | 32
U2af1 (GeneID 108121) | 3 | 109 | 33.7
Pbx1 (GeneID 18514) | 1 | 60.1 | 64.4
Pbx1 (GeneID 18514) | 2 | 101 | 66.3
Pbx1 (GeneID 18514) | 3 | 94.1 | 107
Or13c3 (GeneID 258821) | 1 | 81.6 | 77.2
Or13c3 (GeneID 258821) | 2 | 114 | 75.3
Or13c3 (GeneID 258821) | 3 | 81.9 | 97.4
Actrt3 (GeneID 76652) | 1 | 95.7 | 93.9
Actrt3 (GeneID 76652) | 2 | 96.3 | 106
Psmb7 (GeneID 19177) | 1 | 7.93 | 5.71
Psmb7 (GeneID 19177) | 2 | 6.02 | 3.11
Psmb7 (GeneID 19177) | 3 | 29.8 | 12.5
Trap1a (GeneID 22037) | 1 | 38.4 | 47.7
Trap1a (GeneID 22037) | 2 | 78.7 | 99.4
Trap1a (GeneID 22037) | 3 | 70.4 | 95.4
